Measurements: publication PMC10747599 (Viruses, 2023)

Tested on: SLEV infection in Vero CCL81 cells
Experiment: microbe, parasite or virus in culture
Format: cell-based, St. Louis encephalitis virus (SLEV BeH 355964)
Conditions: St. Louis encephalitis virus, 72 h

For `CCCCc1oc2ccccc2c1C(=O)c1cc(I)c(OCCN(CC)CC)c(I)c1` [Amiodarone], the EC50 was 4.6 µM.
